# Results are given in words; binding and its absence hold for the method and conditions named. In cells and extracts the contact can be indirect. Some entries that bind do so weakly or less than the wild type. For some of these results: Where a sequence is shown, tags or fusion partners need not be part of it.
# Protein sequences, listed by entry. Tags and fused reporters are not part of them.
# UniProt P29555: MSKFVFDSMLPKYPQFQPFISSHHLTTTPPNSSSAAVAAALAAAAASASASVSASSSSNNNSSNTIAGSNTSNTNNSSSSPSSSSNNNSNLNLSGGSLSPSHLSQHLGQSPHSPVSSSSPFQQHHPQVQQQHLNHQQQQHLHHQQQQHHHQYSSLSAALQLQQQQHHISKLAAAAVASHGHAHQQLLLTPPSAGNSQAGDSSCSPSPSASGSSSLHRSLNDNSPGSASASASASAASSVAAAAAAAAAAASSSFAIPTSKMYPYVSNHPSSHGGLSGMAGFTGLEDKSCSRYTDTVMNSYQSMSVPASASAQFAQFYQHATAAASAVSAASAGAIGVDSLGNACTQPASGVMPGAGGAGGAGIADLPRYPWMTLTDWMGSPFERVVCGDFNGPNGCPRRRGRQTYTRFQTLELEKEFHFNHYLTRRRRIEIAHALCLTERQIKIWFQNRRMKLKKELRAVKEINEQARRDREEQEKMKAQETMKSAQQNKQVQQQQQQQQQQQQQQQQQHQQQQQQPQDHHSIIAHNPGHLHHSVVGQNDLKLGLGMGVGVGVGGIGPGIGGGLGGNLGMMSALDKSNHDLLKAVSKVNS
# UniProt P20009: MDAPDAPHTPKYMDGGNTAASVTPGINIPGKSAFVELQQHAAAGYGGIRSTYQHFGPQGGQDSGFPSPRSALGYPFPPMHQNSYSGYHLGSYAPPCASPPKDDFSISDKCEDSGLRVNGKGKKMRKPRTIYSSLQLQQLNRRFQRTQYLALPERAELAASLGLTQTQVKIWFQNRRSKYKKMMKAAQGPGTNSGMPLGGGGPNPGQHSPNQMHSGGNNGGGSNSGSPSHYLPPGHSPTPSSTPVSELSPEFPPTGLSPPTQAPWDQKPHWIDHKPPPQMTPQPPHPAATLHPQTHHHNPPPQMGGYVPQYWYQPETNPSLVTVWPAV
# UniProt O46036: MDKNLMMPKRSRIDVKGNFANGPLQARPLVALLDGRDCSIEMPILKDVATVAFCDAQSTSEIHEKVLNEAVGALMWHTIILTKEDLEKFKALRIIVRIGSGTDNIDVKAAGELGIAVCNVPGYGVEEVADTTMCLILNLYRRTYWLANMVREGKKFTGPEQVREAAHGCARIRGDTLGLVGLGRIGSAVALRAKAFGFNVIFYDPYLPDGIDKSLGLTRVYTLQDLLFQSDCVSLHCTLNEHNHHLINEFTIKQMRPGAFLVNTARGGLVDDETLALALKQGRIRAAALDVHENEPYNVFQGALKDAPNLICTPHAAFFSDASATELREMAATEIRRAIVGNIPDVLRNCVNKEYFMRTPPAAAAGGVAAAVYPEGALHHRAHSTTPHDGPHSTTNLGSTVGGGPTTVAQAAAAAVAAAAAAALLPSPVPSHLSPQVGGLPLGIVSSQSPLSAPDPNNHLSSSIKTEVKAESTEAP
# UniProt P23757: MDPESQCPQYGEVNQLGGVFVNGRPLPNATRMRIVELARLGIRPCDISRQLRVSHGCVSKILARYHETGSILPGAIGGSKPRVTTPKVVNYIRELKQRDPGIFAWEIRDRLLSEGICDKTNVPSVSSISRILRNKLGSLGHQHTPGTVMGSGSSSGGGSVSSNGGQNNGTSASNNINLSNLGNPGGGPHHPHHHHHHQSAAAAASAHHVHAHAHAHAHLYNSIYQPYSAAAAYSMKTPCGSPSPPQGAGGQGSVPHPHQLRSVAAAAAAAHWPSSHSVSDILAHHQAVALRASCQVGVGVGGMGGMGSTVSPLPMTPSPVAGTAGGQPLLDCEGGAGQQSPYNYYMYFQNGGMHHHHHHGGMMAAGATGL
# What was measured:
# [1] = target: T1, VC-Exd (Extradenticle fused to the C-terminal fragment of Venus) (Drosophila (D. melanogaster)) (UniProt P40427); test: split reporter; Venus-based BiFC in live Drosophila embryos; TFs fused to VN with VC-Exd; abdA-Gal4 driver, epidermis of stage 10 embryos
# T1 sequence: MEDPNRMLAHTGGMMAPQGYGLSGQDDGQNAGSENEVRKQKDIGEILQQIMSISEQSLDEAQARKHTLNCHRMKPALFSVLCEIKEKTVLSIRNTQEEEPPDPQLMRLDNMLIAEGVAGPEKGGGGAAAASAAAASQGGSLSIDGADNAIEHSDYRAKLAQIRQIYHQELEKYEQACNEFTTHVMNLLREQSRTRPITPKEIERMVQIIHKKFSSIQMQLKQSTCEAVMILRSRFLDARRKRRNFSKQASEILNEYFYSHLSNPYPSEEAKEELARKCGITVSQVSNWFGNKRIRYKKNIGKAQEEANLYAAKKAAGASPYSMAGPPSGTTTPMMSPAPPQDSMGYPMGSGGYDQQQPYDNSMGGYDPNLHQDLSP
# [2] = target: CN-AbdA (AbdominalA fused to the N-terminal fragment of Cerulean) (Drosophila (D. melanogaster)) (UniProt P29555); test: split reporter; bicolour BiFC in live Drosophila embryos: ORF-CC co-expressed with CN-AbdA, VN-Exd and a mCherry reporter; abdA-Gal4 driver, stage 10 embryos
# [3] = target: T2, VN-Exd (Extradenticle fused to the N-terminal fragment of Venus) (Drosophila (D. melanogaster)) (UniProt P40427); test: as above
# T2 sequence: T1 sequence
# [4] = target: VN-AbdA (AbdominalA fused to the N-terminal fragment of Venus) (Drosophila (D. melanogaster)) (UniProt P29555); test: split reporter; BiFC competition in live Drosophila embryos: VN-AbdA and ORF-CC with co-expression of the corresponding non-complementing ORF-3xHA; abdA-Gal4 driver, epidermis of stage 10/11 embryos; identical parameters of confocal acquisition
# [5] = target: CN-AbdA (AbdominalA fused to the N-terminal fragment of Cerulean) (Drosophila (D. melanogaster)) (UniProt P29555); test: split reporter; Venus- or Cerulean-based BiFC in live Drosophila embryos; ORF-CC with VN-AbdA or CN-AbdA; abdA-Gal4 driver (epidermis, stage 10/11) or 24B-Gal4 driver (somatic mesoderm, stage 14); confocal observation
# [6] = target: VN-AbdA (AbdominalA fused to the N-terminal fragment of Venus) (Drosophila (D. melanogaster)) (UniProt P29555); test: as above
Substance,binding [1],binding [2],binding [3],binding [4],other results
Distalless fused to VN (from UniProt P20009 1-327),binds,–,–,–,–
CtBP fused to VN (from UniProt O46036 1-476),binds,–,–,–,–
Pox mesoderm ORF-3xHA (Poxm-HA) (from UniProt P23757 1-370),–,–,–,binds,–
CtBP ORF-CC (CtBP-CC) (from UniProt O46036 1-476),–,binds,binds,–,–

# The next lines start with results.
binding [1],binding [2],binding [3],binding [4],Substance,other results
–,binds,binds,–,Distalless ORF-CC (Dll-CC) (from UniProt P20009 1-327),–
–,–,–,binds,Pox mesoderm ORF-CC (Poxm-CC) (from UniProt P23757 1-370),binding [5]: binds; binding [6]: binds
